Publication PMC7364817
These are yes or no findings as the source states them, for the method shown. In cells and extracts the contact can be indirect. Here binding means that the protein was enriched with, or labelled near, the bait; the list need not be complete. Tags and fused reporters may be left off the sequences shown. Values belong to the molecule of their own block, whether it stands above or below them.

Sequences of proteins named here, by UniProt entry; tags and fusion partners are left off. Residues count along the entry.
UniProt Q9H0U4: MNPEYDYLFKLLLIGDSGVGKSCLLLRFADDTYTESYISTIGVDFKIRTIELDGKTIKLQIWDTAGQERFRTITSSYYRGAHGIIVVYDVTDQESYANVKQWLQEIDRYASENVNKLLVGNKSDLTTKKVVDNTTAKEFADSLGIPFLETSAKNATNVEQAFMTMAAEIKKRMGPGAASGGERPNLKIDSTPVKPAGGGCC
UniProt Q8TDY2: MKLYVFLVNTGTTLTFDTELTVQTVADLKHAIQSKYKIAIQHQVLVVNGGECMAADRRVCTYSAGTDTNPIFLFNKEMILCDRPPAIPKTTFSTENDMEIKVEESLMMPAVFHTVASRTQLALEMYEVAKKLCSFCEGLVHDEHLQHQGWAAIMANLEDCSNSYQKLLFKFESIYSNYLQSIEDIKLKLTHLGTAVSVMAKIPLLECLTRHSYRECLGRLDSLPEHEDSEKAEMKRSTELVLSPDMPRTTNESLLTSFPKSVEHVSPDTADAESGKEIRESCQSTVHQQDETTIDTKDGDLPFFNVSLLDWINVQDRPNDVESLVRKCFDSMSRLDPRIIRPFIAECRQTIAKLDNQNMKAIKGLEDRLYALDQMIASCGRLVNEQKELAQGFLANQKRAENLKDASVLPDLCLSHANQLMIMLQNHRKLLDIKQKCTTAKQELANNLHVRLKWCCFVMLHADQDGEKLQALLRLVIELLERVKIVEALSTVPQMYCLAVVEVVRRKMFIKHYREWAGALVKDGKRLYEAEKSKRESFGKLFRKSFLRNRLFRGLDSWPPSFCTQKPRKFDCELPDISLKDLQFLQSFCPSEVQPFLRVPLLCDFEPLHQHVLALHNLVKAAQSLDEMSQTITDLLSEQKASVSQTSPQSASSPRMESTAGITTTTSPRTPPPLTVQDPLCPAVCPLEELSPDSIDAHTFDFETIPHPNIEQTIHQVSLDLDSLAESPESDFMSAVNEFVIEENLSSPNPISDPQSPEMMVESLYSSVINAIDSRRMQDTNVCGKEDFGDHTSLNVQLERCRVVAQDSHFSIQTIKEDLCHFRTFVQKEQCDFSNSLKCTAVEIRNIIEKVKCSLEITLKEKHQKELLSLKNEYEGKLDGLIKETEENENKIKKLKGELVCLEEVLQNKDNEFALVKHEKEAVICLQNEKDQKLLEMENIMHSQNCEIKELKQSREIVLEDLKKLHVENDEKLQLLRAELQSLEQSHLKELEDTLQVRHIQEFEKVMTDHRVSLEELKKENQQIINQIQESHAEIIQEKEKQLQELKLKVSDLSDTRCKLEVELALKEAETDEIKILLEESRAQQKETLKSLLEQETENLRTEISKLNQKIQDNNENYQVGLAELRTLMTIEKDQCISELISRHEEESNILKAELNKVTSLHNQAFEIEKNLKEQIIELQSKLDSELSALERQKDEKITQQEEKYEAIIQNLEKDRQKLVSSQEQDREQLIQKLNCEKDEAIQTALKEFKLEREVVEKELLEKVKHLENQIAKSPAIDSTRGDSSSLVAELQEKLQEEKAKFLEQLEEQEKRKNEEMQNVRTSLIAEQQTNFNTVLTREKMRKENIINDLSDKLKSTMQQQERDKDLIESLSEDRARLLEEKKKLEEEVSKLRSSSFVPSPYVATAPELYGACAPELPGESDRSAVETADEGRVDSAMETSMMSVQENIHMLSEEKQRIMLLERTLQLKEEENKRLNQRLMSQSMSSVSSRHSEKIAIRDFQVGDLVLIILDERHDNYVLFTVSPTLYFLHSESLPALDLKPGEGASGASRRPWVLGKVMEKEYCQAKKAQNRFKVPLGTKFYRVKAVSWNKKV
UniProt Q01469: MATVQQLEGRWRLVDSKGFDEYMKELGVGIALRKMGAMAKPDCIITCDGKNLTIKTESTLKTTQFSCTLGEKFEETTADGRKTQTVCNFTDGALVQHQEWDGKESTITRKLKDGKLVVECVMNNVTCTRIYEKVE
UniProt P40939, residues 37-763: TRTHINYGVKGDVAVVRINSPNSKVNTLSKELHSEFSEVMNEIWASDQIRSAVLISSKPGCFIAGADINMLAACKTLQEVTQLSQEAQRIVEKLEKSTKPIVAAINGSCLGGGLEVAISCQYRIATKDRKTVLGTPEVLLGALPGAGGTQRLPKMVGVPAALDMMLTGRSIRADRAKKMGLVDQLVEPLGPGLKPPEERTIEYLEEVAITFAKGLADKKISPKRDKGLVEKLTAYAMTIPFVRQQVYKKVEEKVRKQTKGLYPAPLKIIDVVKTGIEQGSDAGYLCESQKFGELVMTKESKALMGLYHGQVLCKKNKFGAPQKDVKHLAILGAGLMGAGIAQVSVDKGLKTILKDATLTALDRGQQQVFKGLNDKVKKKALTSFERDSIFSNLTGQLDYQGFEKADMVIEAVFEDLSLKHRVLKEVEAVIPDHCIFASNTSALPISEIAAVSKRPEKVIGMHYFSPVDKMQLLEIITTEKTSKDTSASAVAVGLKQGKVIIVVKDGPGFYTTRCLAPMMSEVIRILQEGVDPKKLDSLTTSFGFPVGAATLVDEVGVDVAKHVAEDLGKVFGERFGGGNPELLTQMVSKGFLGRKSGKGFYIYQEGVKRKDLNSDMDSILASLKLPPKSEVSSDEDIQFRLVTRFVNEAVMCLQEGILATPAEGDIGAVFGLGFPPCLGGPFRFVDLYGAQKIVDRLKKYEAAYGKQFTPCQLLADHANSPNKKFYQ
UniProt P35998: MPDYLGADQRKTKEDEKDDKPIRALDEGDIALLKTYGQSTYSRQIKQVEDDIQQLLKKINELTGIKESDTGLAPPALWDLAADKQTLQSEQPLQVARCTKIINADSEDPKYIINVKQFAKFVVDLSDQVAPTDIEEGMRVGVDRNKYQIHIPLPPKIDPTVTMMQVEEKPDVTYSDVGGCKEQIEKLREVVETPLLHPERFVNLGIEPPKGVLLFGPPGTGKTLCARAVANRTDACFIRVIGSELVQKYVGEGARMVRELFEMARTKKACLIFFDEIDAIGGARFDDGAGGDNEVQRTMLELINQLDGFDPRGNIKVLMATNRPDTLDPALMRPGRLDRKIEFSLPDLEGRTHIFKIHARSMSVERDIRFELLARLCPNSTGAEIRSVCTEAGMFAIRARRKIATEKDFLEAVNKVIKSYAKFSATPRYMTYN
UniProt Q9NZT1: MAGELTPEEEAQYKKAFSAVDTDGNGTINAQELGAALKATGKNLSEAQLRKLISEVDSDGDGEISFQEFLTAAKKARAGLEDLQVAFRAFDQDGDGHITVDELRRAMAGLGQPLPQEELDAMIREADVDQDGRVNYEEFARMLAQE
UniProt P53618: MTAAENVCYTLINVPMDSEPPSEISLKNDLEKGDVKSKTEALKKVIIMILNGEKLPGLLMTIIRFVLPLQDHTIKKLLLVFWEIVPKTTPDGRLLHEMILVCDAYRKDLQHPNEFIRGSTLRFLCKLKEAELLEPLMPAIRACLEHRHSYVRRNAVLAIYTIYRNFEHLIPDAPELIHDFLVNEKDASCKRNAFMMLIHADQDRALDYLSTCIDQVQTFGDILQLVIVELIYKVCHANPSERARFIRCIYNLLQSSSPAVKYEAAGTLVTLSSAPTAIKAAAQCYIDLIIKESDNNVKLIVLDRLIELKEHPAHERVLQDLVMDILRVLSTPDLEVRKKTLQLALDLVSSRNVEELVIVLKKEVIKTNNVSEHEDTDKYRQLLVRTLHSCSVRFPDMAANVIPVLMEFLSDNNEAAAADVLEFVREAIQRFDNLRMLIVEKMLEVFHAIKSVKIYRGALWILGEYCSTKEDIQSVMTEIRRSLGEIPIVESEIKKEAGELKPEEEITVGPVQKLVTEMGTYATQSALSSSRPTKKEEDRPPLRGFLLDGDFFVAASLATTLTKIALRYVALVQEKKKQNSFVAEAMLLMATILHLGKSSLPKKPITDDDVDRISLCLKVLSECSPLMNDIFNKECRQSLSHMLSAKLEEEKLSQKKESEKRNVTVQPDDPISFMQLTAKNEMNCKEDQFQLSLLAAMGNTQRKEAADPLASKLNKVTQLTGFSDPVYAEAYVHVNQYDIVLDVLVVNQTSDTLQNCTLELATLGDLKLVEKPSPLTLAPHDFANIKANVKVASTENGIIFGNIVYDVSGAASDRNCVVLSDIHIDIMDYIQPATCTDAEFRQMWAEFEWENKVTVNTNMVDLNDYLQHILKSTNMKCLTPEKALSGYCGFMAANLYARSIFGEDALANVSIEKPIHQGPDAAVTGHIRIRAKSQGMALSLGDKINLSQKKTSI
UniProt Q5D862: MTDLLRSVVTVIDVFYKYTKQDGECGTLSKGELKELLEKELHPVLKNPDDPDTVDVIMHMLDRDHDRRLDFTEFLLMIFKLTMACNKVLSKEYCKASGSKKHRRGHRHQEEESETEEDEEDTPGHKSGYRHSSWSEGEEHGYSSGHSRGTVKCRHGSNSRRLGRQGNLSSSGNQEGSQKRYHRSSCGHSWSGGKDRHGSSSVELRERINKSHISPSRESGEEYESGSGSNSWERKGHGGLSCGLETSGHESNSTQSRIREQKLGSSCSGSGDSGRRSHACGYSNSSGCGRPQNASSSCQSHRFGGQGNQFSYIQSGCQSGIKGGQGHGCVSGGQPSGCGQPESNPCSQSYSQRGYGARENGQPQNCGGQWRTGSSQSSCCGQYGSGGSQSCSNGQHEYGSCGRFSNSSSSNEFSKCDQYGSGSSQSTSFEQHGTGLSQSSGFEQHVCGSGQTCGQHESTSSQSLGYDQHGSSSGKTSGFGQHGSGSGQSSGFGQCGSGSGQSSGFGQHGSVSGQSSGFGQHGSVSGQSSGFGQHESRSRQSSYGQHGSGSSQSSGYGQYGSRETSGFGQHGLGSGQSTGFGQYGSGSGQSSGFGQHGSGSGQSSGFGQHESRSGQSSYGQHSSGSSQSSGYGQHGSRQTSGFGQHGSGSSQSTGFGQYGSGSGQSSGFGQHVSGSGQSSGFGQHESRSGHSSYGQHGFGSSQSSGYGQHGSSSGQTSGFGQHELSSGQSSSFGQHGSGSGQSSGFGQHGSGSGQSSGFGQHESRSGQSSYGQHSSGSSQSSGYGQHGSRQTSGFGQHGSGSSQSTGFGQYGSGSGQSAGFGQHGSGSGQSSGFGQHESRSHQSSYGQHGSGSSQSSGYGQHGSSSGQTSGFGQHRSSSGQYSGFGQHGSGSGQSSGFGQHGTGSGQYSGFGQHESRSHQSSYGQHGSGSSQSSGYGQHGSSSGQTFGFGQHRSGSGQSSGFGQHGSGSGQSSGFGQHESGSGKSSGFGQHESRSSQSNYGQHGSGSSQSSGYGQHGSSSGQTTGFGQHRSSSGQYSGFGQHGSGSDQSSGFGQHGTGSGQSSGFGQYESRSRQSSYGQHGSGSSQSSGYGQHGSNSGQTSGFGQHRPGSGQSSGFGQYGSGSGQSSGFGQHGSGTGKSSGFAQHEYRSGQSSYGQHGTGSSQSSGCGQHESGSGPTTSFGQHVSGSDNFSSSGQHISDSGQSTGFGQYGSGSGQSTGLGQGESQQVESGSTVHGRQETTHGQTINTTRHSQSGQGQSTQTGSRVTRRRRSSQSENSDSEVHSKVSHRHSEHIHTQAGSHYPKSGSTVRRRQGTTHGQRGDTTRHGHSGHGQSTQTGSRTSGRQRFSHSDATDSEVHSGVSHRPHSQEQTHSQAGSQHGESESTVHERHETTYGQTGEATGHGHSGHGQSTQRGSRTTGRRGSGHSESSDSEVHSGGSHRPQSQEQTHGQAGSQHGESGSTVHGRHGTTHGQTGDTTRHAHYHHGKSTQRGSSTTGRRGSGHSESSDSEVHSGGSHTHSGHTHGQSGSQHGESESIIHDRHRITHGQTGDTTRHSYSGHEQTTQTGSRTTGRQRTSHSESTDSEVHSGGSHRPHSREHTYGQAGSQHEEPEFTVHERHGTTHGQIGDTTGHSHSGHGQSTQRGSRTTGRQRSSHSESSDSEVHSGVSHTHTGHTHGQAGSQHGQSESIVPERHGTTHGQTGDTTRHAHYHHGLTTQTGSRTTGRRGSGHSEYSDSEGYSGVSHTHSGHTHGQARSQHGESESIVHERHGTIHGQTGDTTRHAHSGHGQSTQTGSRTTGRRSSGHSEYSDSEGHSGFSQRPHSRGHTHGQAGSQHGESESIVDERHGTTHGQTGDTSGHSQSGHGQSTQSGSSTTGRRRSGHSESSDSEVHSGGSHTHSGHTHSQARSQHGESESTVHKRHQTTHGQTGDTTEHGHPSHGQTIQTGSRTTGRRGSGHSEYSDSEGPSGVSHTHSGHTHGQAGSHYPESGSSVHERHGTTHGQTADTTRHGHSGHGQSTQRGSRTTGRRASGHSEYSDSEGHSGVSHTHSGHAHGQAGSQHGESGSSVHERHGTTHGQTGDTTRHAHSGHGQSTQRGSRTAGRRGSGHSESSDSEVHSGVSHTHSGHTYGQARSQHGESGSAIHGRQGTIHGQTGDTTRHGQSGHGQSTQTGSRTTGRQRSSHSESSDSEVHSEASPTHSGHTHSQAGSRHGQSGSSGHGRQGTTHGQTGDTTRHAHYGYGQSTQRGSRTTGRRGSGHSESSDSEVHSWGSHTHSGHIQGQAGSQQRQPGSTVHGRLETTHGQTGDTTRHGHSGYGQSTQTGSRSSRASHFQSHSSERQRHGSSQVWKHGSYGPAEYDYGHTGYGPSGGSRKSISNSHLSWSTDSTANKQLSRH

Legend:
[1] = target: T1, C9orf72 long isoform with C-terminal FLAG tag (human) (UniProt Q96LT7); test: affinity purification with mass spectrometry; FL-SMCR8, C9orf72-FL or empty vector transfected in HEK 293T; α-FLAG agarose IP from whole cell lysates with or without RNase; LC-MS/MS; hits with three or more spectra and not detected in vector only control
T1 sequence: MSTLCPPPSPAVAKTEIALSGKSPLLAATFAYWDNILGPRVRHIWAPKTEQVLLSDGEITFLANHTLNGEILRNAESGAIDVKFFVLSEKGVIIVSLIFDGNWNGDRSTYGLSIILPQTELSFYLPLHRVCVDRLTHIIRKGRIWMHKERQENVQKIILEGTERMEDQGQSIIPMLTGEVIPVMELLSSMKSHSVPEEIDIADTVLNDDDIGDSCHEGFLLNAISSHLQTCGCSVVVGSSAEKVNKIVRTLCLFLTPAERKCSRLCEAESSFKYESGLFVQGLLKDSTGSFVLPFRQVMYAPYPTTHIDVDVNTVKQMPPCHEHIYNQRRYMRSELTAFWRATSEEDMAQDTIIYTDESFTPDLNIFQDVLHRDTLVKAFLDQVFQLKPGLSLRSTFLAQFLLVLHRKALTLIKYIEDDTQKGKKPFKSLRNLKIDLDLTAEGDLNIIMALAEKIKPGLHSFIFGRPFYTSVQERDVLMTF

[2] = target: T2, FLAG-tagged SMCR8 (Smith-Magenis Syndrome Chromosome Region, Candidate 8) (UniProt Q8TEV9); test: as above
T2 sequence: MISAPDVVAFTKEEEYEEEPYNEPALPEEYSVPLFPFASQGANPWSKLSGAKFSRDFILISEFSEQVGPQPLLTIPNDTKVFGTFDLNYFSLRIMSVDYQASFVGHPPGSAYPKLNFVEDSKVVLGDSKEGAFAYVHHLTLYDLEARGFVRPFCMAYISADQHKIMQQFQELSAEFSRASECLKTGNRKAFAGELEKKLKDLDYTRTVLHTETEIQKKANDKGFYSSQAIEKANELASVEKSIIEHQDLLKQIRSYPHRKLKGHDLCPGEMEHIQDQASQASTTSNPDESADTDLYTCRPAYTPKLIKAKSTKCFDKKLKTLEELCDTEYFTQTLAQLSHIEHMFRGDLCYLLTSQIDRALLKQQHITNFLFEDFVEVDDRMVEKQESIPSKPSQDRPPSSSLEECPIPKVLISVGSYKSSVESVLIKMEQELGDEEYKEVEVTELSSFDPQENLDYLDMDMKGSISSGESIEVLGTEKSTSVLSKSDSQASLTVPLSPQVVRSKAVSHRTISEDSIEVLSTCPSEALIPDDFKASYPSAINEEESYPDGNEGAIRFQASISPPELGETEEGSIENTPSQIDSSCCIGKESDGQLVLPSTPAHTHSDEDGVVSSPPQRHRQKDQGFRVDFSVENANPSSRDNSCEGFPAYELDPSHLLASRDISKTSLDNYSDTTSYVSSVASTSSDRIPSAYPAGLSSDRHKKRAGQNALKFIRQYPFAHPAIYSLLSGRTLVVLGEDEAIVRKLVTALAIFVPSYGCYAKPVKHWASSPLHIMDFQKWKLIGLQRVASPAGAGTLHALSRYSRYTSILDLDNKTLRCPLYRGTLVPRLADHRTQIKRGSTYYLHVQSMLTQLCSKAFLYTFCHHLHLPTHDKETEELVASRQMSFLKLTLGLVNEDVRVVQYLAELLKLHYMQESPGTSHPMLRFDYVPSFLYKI

Molecule: RAB1B, member RAS oncogene family (from UniProt Q9H0U4 1-201)
- binding [1]: binds
- binding [2]: binds

Molecule: RB1CC1 (from UniProt Q8TDY2 1-1594)
- binding [1]: binds
- binding [2]: binds

Molecule: fatty acid binding protein 5 (from UniProt Q01469 1-135)
- binding [1]: binds

Molecule: hydroxyacyl-CoA dehydrogenase/3-ketoacyl-CoA thiolase/enoyl-CoA hydratase, alpha subunit (from UniProt P40939 37-763)
- binding [1]: binds

Molecule: proteasome 26S subunit, ATPase 2 (from UniProt P35998 1-433)
- binding [1]: binds
- binding [2]: binds

B4: isoleucyl-tRNA synthetase (protein, UniProt P41252 1-1262)
chain: MLQQVPENINFPAEEEKILEFWTEFNCFQECLKQSKHKPKFTFYDGPPFATGLPHYGHILAGTIKDIVTRYAHQSGFHVDRRFGWDCHGLPVEYEIDKTLGIRGPEDVAKMGITEYNNQCRAIVMRYSAEWKSTVSRLGRWIDFDNDYKTLYPQFMESVWWVFKQLYDKGLVYRGVKVMPFSTACNTPLSNFESHQNYKDVQDPSVFVTFPLEEDETVSLVAWTTTPWTLPSNLAVCVNPEMQYVKIKDVARGRLLILMEARLSALYKLESDYEILERFPGAYLKGKKYRPLFDYFLKCKENGAFTVLVDNYVKEEEGTGVVHQAPYFGAEDYRVCMDFNIIRKDSLPVCPVDASGCFTTEVTDFAGQYVKDADKSIIRTLKEQGRLLVATTFTHSYPFCWRSDTPLIYKAVPSWFVRVENMVDQLLRNNDLCYWVPELVREKRFGNWLKDARDWTISRNRYWGTPIPLWVSDDFEEVVCIGSVAELEELSGAKISDLHRESVDHLTIPSRCGKGSLHRISEVFDCWFESGSMPYAQVHYPFENKREFEDAFPADFIAEGIDQTRGWFYTLLVLATALFGQPPFKNVIVNGLVLASDGQKMSKRKKNYPDPVSIIQKYGADALRLYLINSPVVRAENLRFKEEGVRDVLKDVLLPWYNAYRFLIQNVLRLQKEEEIEFLYNENTVRESPNITDRWILSFMQSLIGFFETEMAAYRLYTVVPRLVKFVDILTNWYVRMNRRRLKGENGMEDCVMALETLFSVLLSLCRLMAPYTPFLTELMYQNLKVLIDPVSVQDKDTLSIHYLMLPRVREELIDKKTESAVSQMQSVIELGRVIRDRKTIPIKYPLKEIVVIHQDPEALKDIKSLEKYIIEELNVRKVTLSTDKNKYGIRLRAEPDHMVLGKRLKGAFKAVMTSIKQLSSEELEQFQKTGTIVVEGHELHDEDIRLMYTFDQATGGTAQFEAHSDAQALVLLDVTPDQSMVDEGMAREVINRIQKLRKKCNLVPTDEITVYYKAKSEGTYLNSVIESHTEFIFTTIKAPLKPYPVSPSDKVLIQEKTQLKGSELEITLTRGSSLPGPACAYVNLNICANGSEQGGVLLLENPKGDNRLDLLKLKSVVTSIFGVKNTELAVFHDETEIQNQTDLLSLSGKTLCVTAGSAPSLINSSSTLLCQYINLQLLNAKPQECLMGTVGTLLLENPLGQNGLTHQGLLYEAAKVFGLRSRKLKLFLNETQTQEITEDIPVKTLNMKTVYVSVLPTTADF
- binding [1]: binds
- binding [2]: binds

Other lines, results leading:

- binding [1]: binds
Molecule: calmodulin like 5 (from UniProt Q9NZT1 1-146)

- binding [1]: binds
Molecule: coatomer protein complex subunit beta 1 (from UniProt P53618 1-953)

- binding [1]: binds
Molecule: eukaryotic translation initiation factor 2 subunit gamma (from UniProt P41091 1-472)

- binding [1]: binds
Molecule: filaggrin family member 2 (from UniProt Q5D862 1-2391)

- binding [1]: binds
B1: corneodesmosin (protein, UniProt Q15517 33-529)
chain: KSIGTFSDPCKDPTRITSPNDPCLTGKGDSSGFSSYSGSSSSGSSISSARSSGGGSSGSSSGSSIAQGGSAGSFKPGTGYSQVSYSSGSGSSLQGASGSSQLGSSSSHSGNSGSHSGSSSSHSSSSSSFQFSSSSFQVGNGSALPTNDNSYRGILNPSQPGQSSSSSQTFGVSSSGQSVSSNQRPCSSDIPDSPCSGGPIVSHSGPYIPSSHSVSGGQRPVVVVVDQHGSGAPGVVQGPPCSNGGLPGKPCPPITSVDKSYGGYEVVGGSSDSYLVPGMTYSKGKIYPVGYFTKENPVKGSPGVPSFAAGPPISEGKYFSSNPIIPSQSAASSAIAFQPVGTGGVQLCGGGSTGSKGPCSPSSSRVPSSSSISSSSGLPYHPCGSASQSPCSPPGTGSFSSSSSSQSSGKIILQPCGSKSSSSGHPCMSVSSLTLTGGPDGSPHPDPSAGAKPCGSSSAGKIPCRSIRDILAQVKPLGPQLADPEVFLPQGELLNSP

- binding [1]: binds
B2: LUC7 like 3 pre-mRNA splicing factor (protein, UniProt O95232 1-432)
chain: MISAAQLLDELMGRDRNLAPDEKRSNVRWDHESVCKYYLCGFCPAELFTNTRSDLGPCEKIHDENLRKQYEKSSRFMKVGYERDFLRYLQSLLAEVERRIRRGHARLALSQNQQSSGAAGPTGKNEEKIQVLTDKIDVLLQQIEELGSEGKVEEAQGMMKLVEQLKEERELLRSTTSTIESFAAQEKQMEVCEVCGAFLIVGDAQSRVDDHLMGKQHMGYAKIKATVEELKEKLRKRTEEPDRDERLKKEKQEREEREKEREREREERERKRRREEEEREKERARDRERRKRSRSRSRHSSRTSDRRCSRSRDHKRSRSRERRRSRSRDRRRSRSHDRSERKHRSRSRDRRRSKSRDRKSYKHRSKSRDREQDRKSKEKEKRGSDDKKSSVKSGSREKQSEDTNTESKESDTKNEVNGTSEDIKSEGDTQSN

- binding [1]: binds
- binding [2]: binds
B3: serpin family B member 3 (protein, UniProt P29508 1-390)
chain: MNSLSEANTKFMFDLFQQFRKSKENNIFYSPISITSALGMVLLGAKDNTAQQIKKVLHFDQVTENTTGKAATYHVDRSGNVHHQFQKLLTEFNKSTDAYELKIANKLFGEKTYLFLQEYLDAIKKFYQTSVESVDFANAPEESRKKINSWVESQTNEKIKNLIPEGNIGSNTTLVLVNAIYFKGQWEKKFNKEDTKEEKFWPNKNTYKSIQMMRQYTSFHFASLEDVQAKVLEIPYKGKDLSMIVLLPNEIDGLQKLEEKLTAEKLMEWTSLQNMRETRVDLHLPRFKVEESYDLKDTLRTMGMVDIFNGDADLSGMTGSRGLVLSGVLHKAFVEVTEEGAEAAAATAVVGFGSSPTSTNEEFHCNHPFLFFIRQNKTNSILFYGRFSSP
